Reference: US10336788B2 (Moerae Matrix, Inc., priority 2014, dated 2019)
Plain letter strings leave the end groups untold.

Test: general procedure: Fmoc solid-phase peptide synthesis; Fmoc-Ala-Wang Resin; HOBt/DIC; recoupling by symmetrical anhydride (DIC)
Conditions: acetate salt

Sequence: YARAAARQARAKALARQLGVAA
- step yield (purification step): Approximately 50-55%
- crude mass (whole synthesis): approximately 1,250 grams
